Data published in patent US7585850B2 (Adenobio N.V., priority 2005, dated 2009).

Test system: hypoxic rats
Experiment: Effect of oral Adb011 on chronic pulmonary hypertension caused by hypoxia in rats
Type: in vivo, rat
Method: Animals were divided in three groups: • Adb-011 chronic treatment (n=5): receiving by gavage Adb-011 (50 mg/kg in suspension with Arabic syrup, 20 mg/ml) twice a day (morning and evening) for 14 days. • Control (n=6): receiving by gavage vehicle (suspension of Arabic syrup 20 mg/kg). • Adb-011 acute treatment (n=6): receiving by gavage vehicle for 14 days and orally treated with a single dose of Adb-011 on the last day (day of surgery). Rats were placed in a chamber where air was circulated at a pressure of 380 Torr, which corresponds to an altitude of 5500 meters. The chamber was open twice a day for ˜30 minutes to treat animals and to replace food and water. On the day of surgery the animals were removed from the chamber and anesthetized with pentobarbital sodium (60 mg/kg ip). A polyethylene catheter (PE-50) was placed in the aortic arch via the left carotid artery. An introducer was advanced in the right ventricle via the right jugular vein. Adequate placement of both catheters was established by the pressure waveform. Both catheters were connected to a pressure transducer (Biopac MP30, BIOPAC Systems, Inc.). The time-lag between last dose of Adb-011 (in group 1) and blood pressure measurement was 14 hours.

For CC(=O)Nc1ccc(C(=O)O)cc1.CC(=O)Nc1ccc(C(=O)O)cc1.CC(=O)Nc1ccc(C(=O)O)cc1.CC(O)CN(C)C.CC(O)CN(C)C.CC(O)CN(C)C.Nc1ncnc2c1ncn2[C@@H]1O[C@H](CO)[C@@H](O)[C@H]1O [Adb011], the “BW (body weight)” value (HxA: chronic treatment 14 days) was 294 ± 5 g and the “BW (body weight)” value (HxC + A 15 min: single oral dose on day of surgery) was 303 ± 3 g.
